Results as given in PubChem BioAssay AID540275 (National Center for Advancing Translational Sciences (NCATS), 2011).
The campaign covered roughly 320,000 compounds. About 620 (0.19%) were called active. The inconclusive results got no clear call from the source; some entries with a clear call stand among them for comparison. Rule as the data show it: active = activation above about 80%; inconclusive = between about 30% and that limit; inactive = weaker than that.

Sequences of proteins named here, by UniProt entry; tags and fusion partners are left off.
UniProt Q8NER1, whole entry, looked up: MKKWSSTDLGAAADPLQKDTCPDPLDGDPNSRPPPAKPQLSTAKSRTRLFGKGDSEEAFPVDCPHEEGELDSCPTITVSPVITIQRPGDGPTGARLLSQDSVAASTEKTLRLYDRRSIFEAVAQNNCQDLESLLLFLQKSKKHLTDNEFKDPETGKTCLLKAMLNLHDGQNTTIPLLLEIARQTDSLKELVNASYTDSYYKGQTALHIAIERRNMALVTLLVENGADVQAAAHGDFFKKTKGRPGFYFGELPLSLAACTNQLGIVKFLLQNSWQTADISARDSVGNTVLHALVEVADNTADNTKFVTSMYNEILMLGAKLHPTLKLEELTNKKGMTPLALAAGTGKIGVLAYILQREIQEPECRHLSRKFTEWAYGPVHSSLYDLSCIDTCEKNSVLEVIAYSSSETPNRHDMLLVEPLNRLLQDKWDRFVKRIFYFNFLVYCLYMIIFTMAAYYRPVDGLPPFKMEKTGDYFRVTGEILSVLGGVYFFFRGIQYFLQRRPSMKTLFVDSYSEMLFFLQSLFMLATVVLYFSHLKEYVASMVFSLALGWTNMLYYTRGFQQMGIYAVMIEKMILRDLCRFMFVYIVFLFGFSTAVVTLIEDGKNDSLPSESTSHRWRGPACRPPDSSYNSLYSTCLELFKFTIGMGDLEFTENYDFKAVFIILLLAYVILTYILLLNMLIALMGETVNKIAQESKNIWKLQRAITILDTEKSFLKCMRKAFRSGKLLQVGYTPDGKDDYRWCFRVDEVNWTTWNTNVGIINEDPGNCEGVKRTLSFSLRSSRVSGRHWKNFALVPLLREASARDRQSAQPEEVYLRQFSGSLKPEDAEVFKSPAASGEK

The compounds below were run against Transient receptor potential cation channel subfamily V member 1 (Homo sapiens) (UniProt Q8NER1) (assay: HTS Assay for Compounds that Act as Agonists of the Vanilloid Receptor 1). Settings: TRPV1-expressing cells, Fluo-8 calcium influx, agonist mode; at 8.33 µM, hits give high values.
Method in brief: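 TRPV1-expressing cells were cultured overnight at 35.5C and loaded with Fluo-8 calcium dye for 40 to 90 min at room temperature. After a 10 s baseline, compound was added and calcium influx was read kinetically for 3 min (ex 480/em 520 nm).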
Also: 0% is about no effect.

Row | Compound | activation
1 | CC(=O)c1ccc(NC(=S)NCCc2cccc(Cl)c2)cc1 | inconclusive: 54.3%
2 | Cn1c(CCN2CCN(c3ccccn3)CC2)nc2cc(NS(=O)(=O)c3ccc(Cl)cc3)ccc21 | inactive: 1.96%
3 | COC(=O)C(Cc1ccccc1)NC(=O)c1ccc(C)cc1 (configuration not stated) | inconclusive: 34.9%
4 | Cc1ccc(-c2nnc(-c3ccc4c(c3)OCO4)o2)cc1 | inconclusive: 45.5%
5 | Cc1ccccc1-n1nnnc1SCCCC(=O)c1ccc(F)cc1 | inconclusive: 33.2%
6 | COC(=O)Nc1ccc(S(=O)(=O)N(C)CC(F)(F)C(F)F)cc1 | inconclusive: 32.3%
7 | CCCn1c(SC(C)C(=O)NCC2CCCO2)nc2sc3c(c2c1=O)CCC3 (configuration not stated) | inconclusive: 55.8%
8 | COc1cc2c(cc1NC(=O)CSc1ccccc1)oc1ccccc12 | inactive: -0.725%
9 | CC(C)(C)c1ccc(C(=O)N/N=C/c2ccccn2)cc1 | active: 82.6%
10 | COc1ccc(-n2nc(C(=O)NCc3ccco3)c3c4ccccc4n(C)c3c2=O)cc1 | inactive: -3.94%
11 | O=C(Nc1cccc(F)c1)c1cccnc1NCCc1ccccc1 | inconclusive: 33.4%
12 | Cc1ccc(C(=O)Nc2ccc3[nH]c(=O)[nH]c3c2)c(C)c1 | inconclusive: 44.9%
13 | O=C(O)COc1ccc2c(c1)O/C(=C\c1cccs1)C2=O | inconclusive: 33.2%
14 | CC(C)c1ccc(OCC(=O)NNC(=S)NC(=O)c2ccco2)c(Br)c1 | inactive: -1.37%
15 | Cc1cccc(Nc2nc(N)nc(CCl)n2)c1 | inactive: 9.22%
16 | CCOc1ccc(/C=C2\SC(N3CCc4ccccc4C3)=NC2=O)cc1 | inconclusive: 44.5%
17 | CN(C)c1ccc(C(=O)Nc2nc3c(s2)CCCC3)cc1 | inconclusive: 68.6%
18 | CCCCCNC(=O)c1cccc(S(=O)(=O)N2CC3(C)CC2CC(C)(C)C3)c1 (configuration not stated) | inconclusive: 35.6%
19 | CC(C)c1ccc(NC2CCCN(C(=O)CN3CCCC3=O)C2)cc1 (configuration not stated) | inconclusive: 42.5%
20 | CCn1c(C(=O)N2CCC(C(=O)NCc3ccc(OC)cc3)CC2)cc2sccc21 | inactive: 10.6%
21 | O=C(Nc1ccccc1-c1ccccc1)C(c1ccccc1)c1ccccc1 | inactive: 11.2%
22 | O=C(Nc1ccc(Cl)cc1)Nc1ccc(Cl)c(Cl)c1 | inactive: 14.7%
23 | O=C(NCc1ccccc1F)C1CCCN1C(=O)Nc1cccc(F)c1 (configuration not stated) | inconclusive: 52.1%

Three entries drawn at random from those above, as already listed:
Row | Compound | activation
2 | Cn1c(CCN2CCN(c3ccccn3)CC2)nc2cc(NS(=O)(=O)c3ccc(Cl)cc3)ccc21 | inactive: 1.96%
8 | COc1cc2c(cc1NC(=O)CSc1ccccc1)oc1ccccc12 | inactive: -0.725%
11 | O=C(Nc1cccc(F)c1)c1cccnc1NCCc1ccccc1 | inconclusive: 33.4%

The list goes on:

Row | Compound | activation
24 | COc1ccc(CCNC(=O)c2ccc(CSc3ccccc3)o2)cc1 | inconclusive: 50.3%
25 | CCC(=O)N1CCN(c2cc(C)ccc2C)CC1 | inconclusive: 33.3%
26 | Cc1ccc(/C=C/C(=O)NCc2ccncc2)cc1 | inconclusive: 50%
27 | O=C(CCc1ccccc1Cl)N1CCN(S(=O)(=O)c2ccccc2)CC1 | inconclusive: 48.5%
28 | CCCCN(C)Cc1cc(=O)oc2cc3c(cc12)CCCC3 | inconclusive: 64%
29 | O=C(CSc1nc2ccc([N+](=O)[O-])cc2[nH]1)c1ccc2ccccc2c1 | inactive: 5.73%
30 | Oc1c(Cl)cc(Cl)cc1/C=C/c1ccc2cccc(O)c2n1 | inactive: 15.6%
31 | CCOC(=O)c1cc(CC)sc1NC(=O)Cc1ccsc1 | inconclusive: 31.3%
32 | O=C(CN1C(=O)c2ccccc2C1=O)NCCc1c[nH]c2ccc(Cl)cc12 | inconclusive: 34.2%
33 | O=C1C2CC=CCC2C(=O)N1c1ccc(NCCc2ccc(O)cc2)c([N+](=O)[O-])c1 (configuration not stated) | inconclusive: 52.1%
34 | CCCOC(=O)Oc1ccc2c(=O)c(Oc3cc(C)cc(C)c3)coc2c1 | inconclusive: 55.8%
35 | N/C(=N\OC(=O)COc1ccc([N+](=O)[O-])cc1)c1cccnc1 | inactive: -3.31%
36 | O=C1c2ccccc2C(Nc2ccc3c(c2)OCCO3)N1Cc1ccccc1 (configuration not stated) | inconclusive: 31.1%
37 | CCc1sc(C(=O)Nc2cccnc2)cc1Br | inconclusive: 79.5%
38 | O=C(/C=C/c1ccccc1Cl)NCCc1ccccc1 | inconclusive: 41.5%
39 | Cc1ccc2c(CN(C)Cc3ccc(Cl)cc3)cc(=O)oc2c1 | inconclusive: 34.5%
40 | Cn1c(/C(C#N)=C/Nc2ccccn2)nc2ccccc21 | inconclusive: 32.3%
41 | O=C(N/N=C/C(Cl)=C/c1ccccc1)c1ccccn1 | inconclusive: 66.6%
42 | Cc1cc(S(=O)(=O)N(Cc2ccc(C(C)(C)C)cc2)Cc2cccs2)ccc1-n1cnnn1 | inconclusive: 62.5%
43 | COc1ccccc1N1CCN(C(=O)c2cc3c(s2)CCCCC3)CC1 | inconclusive: 46.6%
44 | CCOc1cc(CN2CCCC(C(=O)c3cccc(C(F)(F)F)c3)C2)ccc1O (configuration not stated) | inconclusive: 41.3%
45 | CC(C)Cc1ccc(C(C)NC(=O)c2ccc(=O)[nH]c2)cc1 (configuration not stated) | inconclusive: 47.8%
46 | Cc1ccc(C(=O)Nc2ccccc2N2CCN(C(=O)C(C)C)CC2)cc1 | inconclusive: 42%

Structural class: those above containing a tert-butyl group.
Row | Compound | activation
9 | CC(C)(C)c1ccc(C(=O)N/N=C/c2ccccn2)cc1 | active: 82.6%
42 | Cc1cc(S(=O)(=O)N(Cc2ccc(C(C)(C)C)cc2)Cc2cccs2)ccc1-n1cnnn1 | inconclusive: 62.5%

(further entries)

Row | Compound | activation
47 | COc1ccc(C)cc1-n1nnnc1SCC1CCCO1 (configuration not stated) | inactive: 6.76%
48 | O=C(CSC(=S)N1CCCCC1)N1N=CCC1c1ccccc1 (configuration not stated) | inactive: 2.78%
49 | CCOC(=O)C1CCCN(C(=O)CC(c2ccccc2)c2ccccc2)C1 (configuration not stated) | inconclusive: 48.5%
50 | Cc1nc(NC(=O)/C=C/c2ccccc2)sc1C(=O)N1CCCCC1 | inconclusive: 34.7%
51 | CN(C)c1ccc(/C=N\Nc2ccccn2)cc1 | inconclusive: 61.4%
52 | O=C(Cc1cccc(C(F)(F)F)c1)NCc1cccc(Cl)c1 | inactive: 10.9%
53 | Cc1ccc(S(=O)(=O)N2CN(Cc3ccco3)c3nc4ccccc4nc32)cc1 | inactive: 4.69%
54 | CCOc1ccccc1NC(=O)CN(c1ccc(C)cc1)S(=O)(=O)c1c(C)n[nH]c1C | inconclusive: 42.3%
55 | COc1ccc(C(=O)Nc2ccccc2N2CCOCC2)cc1Br | inactive: 20.3%
56 | CC1CCN(C(=O)C(=O)c2cn(CC(=O)N3CCCC3)c3ccccc23)CC1 | inactive: -1.86%
57 | CC(NC(=O)c1ccc(S(C)(=O)=O)cc1)c1cccc2ccccc12 (configuration not stated) | inconclusive: 50.4%
58 | C=C(C)COc1ccc2c(CC)cc(=O)oc2c1 | inconclusive: 49.6%
59 | O=C(Nc1ccccc1Cl)c1ccc(S(=O)(=O)N2CCOCC2)cc1 | inconclusive: 58.2%
60 | c1ccc(-c2nc3ccccn3c2NCc2ccc3c(c2)OCO3)cc1 | inconclusive: 44.1%
61 | CC(C)(C)c1cc(NCc2ccccn2)n2ncc(-c3ccccc3)c2n1 | inconclusive: 45.5%
62 | O=C1C=C(c2ccc3ccccc3c2)C[C@@H](c2ccc(F)cc2)C1 | inconclusive: 42.7%
63 | CN(C)S(=O)(=O)c1ccc(NC(=O)COC(=O)CC2CC3CCC2C3)cc1 (configuration not stated) | inconclusive: 32.7%
64 | CC1CCN(C(=O)COC(=O)c2ccc(F)c(S(=O)(=O)N3CCOCC3)c2)CC1 | inconclusive: 37.9%
65 | CCN(CC)c1nc2cc(C)ccc2cc1/C=C(\C#N)C(N)=O | inconclusive: 60.8%
66 | CCc1cc(C(=O)NC2CCCc3c2cnn3-c2cccc(C)c2C)n(C)n1 (configuration not stated) | inconclusive: 76.3%
67 | COc1ccc(-n2nc3c(N4CCC(C(=O)NCc5ccco5)CC4)nnc(C)c3c2C)cc1 | inconclusive: 31.8%
68 | CN1/C(=C\C(=O)c2cccc(S(=O)(=O)N3CCCCC3)c2)C(C)(C)c2ccccc21 | inactive: 1.89%
69 | CC(=O)N(CCc1cccc(C)c1)Cc1cc2ccc(C)cc2[nH]c1=O | inconclusive: 51.9%

Row | Compound | activation
70 | COc1ccc(C(O)(CC(C)C)C(CN2CCOCC2)c2ccccc2)cc1 (configuration not stated) | inconclusive: 34.6%
71 | Cc1ccc(NC(=O)c2noc(C(C)C)c2[N+](=O)[O-])cc1 | inconclusive: 61.6%
72 | c1ccc(CSc2nnc(NC3=NCCCCC3)s2)cc1 | inconclusive: 45%
73 | O=C(NNC1=C(C(=O)C(F)(F)F)CCC1)c1ccc(Br)cc1 | inactive: -3.21%
74 | COCCN1C(=S)N[C@@H](c2ccccc2)C(C(=O)OC)=C1C | inactive: -0.279%
75 | CC(=O)N1CCN(c2nnc(-c3ccc(C)cc3)c3ccccc23)CC1 | inconclusive: 44.2%
76 | c1cncc(-c2nn[nH]n2)c1 | inactive: 0.224%
77 | CC(=O)c1cnn(-c2ccc(Cl)c(Cl)c2Cl)c1C | inconclusive: 50.2%
78 | COc1ccc2c(c1)c(C(C)=O)c(C)n2CCc1ccccc1 | inconclusive: 31.3%
79 | CCN(CC)c1ccc(/C=N/n2c(C)nc3ccccc3c2=O)cc1 | inconclusive: 64.3%
80 | CC1(C)OC2OC(COC(=O)c3ccc([N+](=O)[O-])cc3)C3OC(C)(C)OC3C2O1 (configuration not stated) | inconclusive: 44.1%
81 | COc1cc(O)c(C(CCN2CCCC2)c2ccc3c(c2)OCO3)c(OC)c1 (configuration not stated) | inactive: 3.5%
82 | Cc1ccc(-n2cc(-c3ccccc3)c3c(NN4CCOCC4)ncnc32)cc1 | inconclusive: 33.9%
83 | CCC(C)c1ccc(NC(=O)C/C(C)=N/NC(=O)c2cnccn2)cc1 (configuration not stated) | inconclusive: 35.3%
84 | OC1CCC(Nc2ncnc3sccc23)CC1 (configuration not stated) | inactive: -0.977%
85 | Cc1ccc(NC(=S)NC(=O)CC2CC(C)(C)OC2=O)cc1 (configuration not stated) | inactive: 5.62%
86 | O=[N+]([O-])c1cc([N+](=O)[O-])c(Oc2c(F)cccc2F)cc1NN1CCCCC1 | inconclusive: 71%
87 | COc1ccc(-c2cc(-c3cccs3)nc(OC)c2C#N)cc1OC | inconclusive: 31.2%
88 | Cc1cccc(C(=O)O/N=C(\N)c2ccccn2)c1 | inconclusive: 34.1%
89 | CNC(=S)NCc1ccc2[nH]c3c(c2c1)CCCC3 | inactive: 17.1%
90 | CC(C)c1ccc(NC(=O)NCc2ccccn2)cc1 | inconclusive: 73.8%
91 | Cc1cc(C)cc(NS(=O)(=O)c2cccs2)c1 | inactive: 1.19%
92 | Cc1ccccc1OCC(=O)Nc1ccccc1-c1ccccc1NC(=O)COc1ccccc1C | inactive: 4.88%

Part of the list above in another layout.

| Row | Compound | activation |
| --- | --- | --- |
| 71 | Cc1ccc(NC(=O)c2noc(C(C)C)c2[N+](=O)[O-])cc1 | inconclusive: 61.6% |
| 77 | CC(=O)c1cnn(-c2ccc(Cl)c(Cl)c2Cl)c1C | inconclusive: 50.2% |
